System: human esophageal specimens (SQ, BE, HGD, EAC)
Test: Confocal microscopy staining of sections of human esophagus ex vivo
Format: binding
Conditions: for Pearson's correlation coefficient, co-localization with AF488-labeled anti-FGFR2 antibody: merged images
Method: Formalin-fixed sections of human esophageal specimens were deparaffinized, and antigen retrieval was performed using standard methods. Briefly, the sections were incubated in xylene for 3 min 3×, washed with 100% ethanol for 2 min 2×, and washed with 95% ethanol for 2 min 2×. Rehydration was performed by washing in dH2O for 5 min 2×. Antigen unmasking was performed by boiling the slides in 10 mM sodium citrate buffer with 0.05% Tween at pH 6.0, and then maintaining at sub-boiling temperature for 15 min. The slides were cooled for 30 min, and the sections were washed in dH2O for 3 min 3× and in PBS for 5 min. Blocking was performed with DAKO protein blocking agent (X0909, DAKO) for 1 hour at RT. The peptides were incubated at a concentration of 1 μM for 10 min at RT. The sections were washed in PBS for 3 min 3×, and incubated with 1:1000 dilution of monoclonal anti-FGFR2 (Abcam, ab58201) overnight at 4° C.
The sections were then washed in PBS for 5 min 3×. A 1:500 dilution of AF488-labeled secondary antibody (goat anti-mouse) was added to each section and incubated for 30 min at RT. The secondary antibody solution was removed by washing with PBS for 5 min 3×. The sections were then mounted with ProLong Gold reagent containing DAPI (Invitrogen). The mean fluorescence intensities from 3 boxes (dimensions of […]) located completely within the surface epithelium of each specimen were measured. […] Serial sections were processed for routine histology (H&E), and were reviewed by an expert gastrointestinal pathologist (HDA).

Substance: SRR*-Cy5.5: 12 amino acid sequence SRRPASFRTARE with fluorophore Cy5.5 attached via a GGGSK linker on the C-terminus (C-terminal GGGSK linker and Cy5.5)
- Pearson's correlation coefficient, co-localization with AF488-labeled anti-FGFR2 antibody (BE): 0.54
- Pearson's correlation coefficient, co-localization with AF488-labeled anti-FGFR2 antibody (EAC): 0.59
- Pearson's correlation coefficient, co-localization with AF488-labeled anti-FGFR2 antibody (HGD): 0.52
- Pearson's correlation coefficient, co-localization with AF488-labeled anti-FGFR2 antibody (SQ): 0.59
- overall Pearson's coefficient, fluorescence intensities versus AF488-labeled anti-FGFR2 antibody (all specimens of SQ, BE, HGD, EAC): 0.66
